{"sequences": {"note": "The chains behind the UniProt entries cited, without tags or fusion partners. Residues count along the entry.", "UniProt Q13873, residues 27-1038": "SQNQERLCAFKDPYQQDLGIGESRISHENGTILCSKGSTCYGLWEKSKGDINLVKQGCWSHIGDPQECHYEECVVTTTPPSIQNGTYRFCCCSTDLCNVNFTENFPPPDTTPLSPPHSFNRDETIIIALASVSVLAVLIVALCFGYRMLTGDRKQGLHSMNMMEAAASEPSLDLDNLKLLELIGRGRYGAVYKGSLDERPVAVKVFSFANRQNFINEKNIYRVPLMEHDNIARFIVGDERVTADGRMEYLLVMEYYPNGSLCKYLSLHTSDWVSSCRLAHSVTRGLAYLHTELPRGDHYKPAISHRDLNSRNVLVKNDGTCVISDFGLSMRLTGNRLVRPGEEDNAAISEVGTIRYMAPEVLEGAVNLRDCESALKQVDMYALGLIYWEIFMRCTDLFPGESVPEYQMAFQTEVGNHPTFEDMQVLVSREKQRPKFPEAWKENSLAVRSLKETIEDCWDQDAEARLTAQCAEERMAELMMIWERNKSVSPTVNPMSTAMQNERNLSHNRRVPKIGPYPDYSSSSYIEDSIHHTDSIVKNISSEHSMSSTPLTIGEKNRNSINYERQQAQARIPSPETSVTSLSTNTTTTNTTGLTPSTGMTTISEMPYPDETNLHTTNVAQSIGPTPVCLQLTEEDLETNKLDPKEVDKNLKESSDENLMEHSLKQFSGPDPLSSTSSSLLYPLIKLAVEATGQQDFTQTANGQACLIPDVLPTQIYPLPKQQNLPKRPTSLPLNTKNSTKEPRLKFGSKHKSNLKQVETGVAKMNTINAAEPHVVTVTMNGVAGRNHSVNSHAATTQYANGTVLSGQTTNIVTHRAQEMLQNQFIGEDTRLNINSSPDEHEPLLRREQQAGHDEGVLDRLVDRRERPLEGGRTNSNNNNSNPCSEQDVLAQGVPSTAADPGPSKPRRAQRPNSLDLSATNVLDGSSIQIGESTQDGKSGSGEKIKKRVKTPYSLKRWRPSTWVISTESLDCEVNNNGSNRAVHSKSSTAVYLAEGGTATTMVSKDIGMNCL"}, "source": "paper PMC5562708", "target": "T1, myc-tagged IRS4 (IRS4-myc), wild type (mouse) (UniProt Q9Z0Y7)", "T1 sequence": "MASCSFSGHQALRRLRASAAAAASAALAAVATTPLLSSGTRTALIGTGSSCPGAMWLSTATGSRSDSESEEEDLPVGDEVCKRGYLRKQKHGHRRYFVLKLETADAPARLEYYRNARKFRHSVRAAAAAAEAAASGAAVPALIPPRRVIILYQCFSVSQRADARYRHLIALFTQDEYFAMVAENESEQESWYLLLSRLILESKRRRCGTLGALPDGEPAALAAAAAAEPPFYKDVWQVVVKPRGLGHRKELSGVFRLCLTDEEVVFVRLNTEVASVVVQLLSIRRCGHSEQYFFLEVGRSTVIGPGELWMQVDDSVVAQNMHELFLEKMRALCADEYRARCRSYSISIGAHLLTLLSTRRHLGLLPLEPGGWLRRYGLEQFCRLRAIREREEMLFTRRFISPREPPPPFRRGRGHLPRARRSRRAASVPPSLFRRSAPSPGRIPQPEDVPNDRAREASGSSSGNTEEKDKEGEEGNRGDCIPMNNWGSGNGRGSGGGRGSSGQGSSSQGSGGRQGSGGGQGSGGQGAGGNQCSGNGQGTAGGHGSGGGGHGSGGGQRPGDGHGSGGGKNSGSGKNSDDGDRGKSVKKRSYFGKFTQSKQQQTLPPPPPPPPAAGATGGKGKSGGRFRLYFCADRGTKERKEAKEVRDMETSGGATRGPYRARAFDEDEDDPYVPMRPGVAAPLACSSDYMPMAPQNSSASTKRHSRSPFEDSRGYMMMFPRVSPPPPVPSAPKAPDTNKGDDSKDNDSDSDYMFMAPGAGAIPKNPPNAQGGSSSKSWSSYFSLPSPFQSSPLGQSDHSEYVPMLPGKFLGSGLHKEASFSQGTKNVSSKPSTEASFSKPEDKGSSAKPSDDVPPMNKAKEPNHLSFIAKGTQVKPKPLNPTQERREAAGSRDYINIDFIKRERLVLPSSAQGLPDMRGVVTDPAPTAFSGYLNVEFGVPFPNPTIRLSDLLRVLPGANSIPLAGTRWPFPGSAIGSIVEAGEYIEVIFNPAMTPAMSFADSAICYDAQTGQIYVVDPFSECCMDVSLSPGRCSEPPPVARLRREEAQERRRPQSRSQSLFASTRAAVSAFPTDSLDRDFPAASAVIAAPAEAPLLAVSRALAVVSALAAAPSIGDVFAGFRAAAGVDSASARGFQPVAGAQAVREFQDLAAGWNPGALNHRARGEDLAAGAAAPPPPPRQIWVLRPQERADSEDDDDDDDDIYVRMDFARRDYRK", "test": "co-IP; transfected HEK293T cells, lysed directly or starved 6 h and stimulated with 10 nM BMP2; RIPA or TNE buffer; IP with anti-myc (9E10) or anti-IRS4 antibody overnight, protein A sepharose; Western blot", "note": "Results are given in words; binding and its absence hold for the method and conditions named. Binding seen in cells or lysates may run through a third protein. Some entries that bind do so weakly or less than the wild type. Tags and fused reporters may be left off the sequences shown."}
{"substance": "HA-tagged BMPRII long form (HA-BMPRII-LF) (from UniProt Q13873 27-1038) (receptor)", "values": [{"measurement": "binding", "value": "binds"}]}
